Results taken from PMC5583178.
No constants are given. Whether binding was seen depends on the method and setting. Binding seen in cells or lysates may run through a third protein. Binding calls can cover weak binding; strength is not graded here.

Molecular target: TNF receptor 1 (TNFR1), endogenous human (human (endogenous in HT-29))
Assay: co-IP; anti-TNFR1 immunoprecipitation from lysates of HT-29 cells (cont-shRNA, RARγ-shRNA-A, TRADD-shRNA) treated with TSZ; immunoblot

B1: TNFR1-associated death domain protein (TRADD), endogenous human (protein, UniProt Q15628 1-312)
chain: MAAGQNGHEEWVGSAYLFVESSLDKVVLSDAYAHPQQKVAVYRALQAALAESGGSPDVLQMLKIHRSDPQLIVQLRFCGRQPCGRFLRAYREGALRAALQRSLAAALAQHSVPLQLELRAGAERLDALLADEERCLSCILAQQPDRLRDEELAELEDALRNLKCGSGARGGDGEVASAPLQPPVPSLSEVKPPPPPPPAQTFLFQGQPVVNRPLSLKDQQTFARSVGLKWRKVGRSLQRGCRALRDPALDSLAYEYEREGLYEQAFQLLRRFVQAEGRRATLQRLVEALEENELTSLAEDLLGLTDPNGGLA
B1 was tested. Which binding did it give?
The binding was “binds”.
